Results deposited as PubChem BioAssay AID504793 (Drosophila RNAi Screening Center, 2011).

Test: 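Whole-genome screen for parts of the DNA damage checkpoint at G2/M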 (primary screen)
Cells: Drosophila S2R+ cells
Knock-down reagent: long dsRNA against Drosophila genes, about 0.25 µg dsRNA per well
Duration: 4 days of dsRNA, then 4 hours of drug before read-out
Challenge: doxorubicin 0.5 µM for 4 hours to cause double-strand breaks, in cells also given a low, harmless dose of dsRNA against nbs to sensitise the assay
Measurement: 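Per-well count of mitotic cells stained for phospho-histone H3 after doxorubicin exposure, used as mitotic index; counts are raw and not normalised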
Scale: mitotic cells: higher = more cells in mitosis, weaker G2 arrest
Hit rule: 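Genes are called active only when high mitotic counts were reproduced with independent dsRNAs and mitosis was checked for delay without damage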
Meaning of the calls: active = confirmed in follow-up tests; inactive = not confirmed
In all, the deposit lists about 23,000 reagents; this is an unselected part of those that have a named target and a result. Over the whole deposit, 62 (0.27%) are marked active. 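Calls come from follow-up tests whose scores are not deposited, so confirmed genes may have low counts here; counts are not normalised per plate.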 Raw values vary from plate to plate and are shown uncorrected. Names joined by + are all predicted targets of the reagent.

What did the screen give for Tgt [DRSC00672]?
mitotic cells, replicate 1: 13; Call: inactive

How did the screen score CG5515 [DRSC15825]?
mitotic cells, replicate 1: 5; Call: inactive

For scf [DRSC08735], what was measured?
mitotic cells, replicate 1: 6; Call: inactive

How did the screen score CG31516 [DRSC11994]?
mitotic cells, replicate 1: 5; Call: inactive

Which result is listed for Agpat4 [DRSC10446]?
mitotic cells, replicate 1: 2; Call: inactive

For Agpat4 [DRSC26102], how do the results read?
mitotic cells, replicate 1: 7; Call: inactive

For scpr-C + scpr-B + scpr-A [DRSC26639], what does the deposit list?
mitotic cells, replicate 1: 4; Call: inactive

How did the screen score CG13563 [DRSC22153]?
mitotic cells, replicate 1: 11; Call: inactive

Which result is listed for msi [DRSC17003]?
mitotic cells, replicate 1: 6; Call: inactive

For CG17267 [DRSC15207], how do the results read?
mitotic cells, replicate 1: 9; Call: inactive

Which result is listed for twy [DRSC10562]?
mitotic cells, replicate 1: 2; Call: inactive

With MFS10 [DRSC19888], what does the deposit list?
mitotic cells, replicate 1: 6; Call: inactive

With MFS10 [DRSC26960], what was measured?
mitotic cells, replicate 1: 9; Call: inactive

Which result is listed for atl [DRSC16089]?
mitotic cells, replicate 1: 8; Call: inactive

What is on record for atl [DRSC26241]?
mitotic cells, replicate 1: 6; Call: inactive

Which result is listed for Sbf [DRSC16852]?
mitotic cells, replicate 1: 3; Call: inactive

For Sbf [DRSC27418], what was measured?
mitotic cells, replicate 1: 9; Call: inactive

What did the screen give for Tmf [DRSC18368]?
mitotic cells, replicate 1: 11; Call: inactive

With Tmf [DRSC30004], how do the results read?
mitotic cells, replicate 1: 1; Call: inactive

For CG7484 [DRSC10853], how do the results read?
mitotic cells, replicate 1: 1; Call: inactive

What is on record for CG9626 [DRSC16525]?
mitotic cells, replicate 1: 6; Call: inactive

What did the screen give for CG9626 [DRSC27021]?
mitotic cells, replicate 1: 3; Call: inactive

With fra [DRSC07621], what does the deposit list?
mitotic cells, replicate 1: 8; Call: inactive

What did the screen give for SerRS [DRSC00496]?
mitotic cells, replicate 1: 6; Call: inactive

What did the screen give for CG31460 [DRSC14370]?
mitotic cells, replicate 1: 2; Call: inactive

With CG14062 [DRSC14725], what does the deposit list?
mitotic cells, replicate 1: 12; Call: inactive

For CG14062 [DRSC27180], how do the results read?
mitotic cells, replicate 1: 3; Call: inactive

For DNAlig4 [DRSC19436], what was measured?
mitotic cells, replicate 1: 9; Call: inactive

How did the screen score CG17187 [DRSC15181]?
mitotic cells, replicate 1: 4; Call: inactive

What did the screen give for CG17187 [DRSC29903]?
mitotic cells, replicate 1: 4; Call: inactive

What is on record for JIL-1 [DRSC11200]?
mitotic cells, replicate 1: 7; Call: inactive

Which result is listed for CG12680 [DRSC17871]?
mitotic cells, replicate 1: 14; Call: inactive

What did the screen give for CG14691 [DRSC14914]?
mitotic cells, replicate 1: 8; Call: inactive

How did the screen score CG14691 [DRSC27957]?
mitotic cells, replicate 1: 8; Call: inactive

Laid out differently: 5 of the entries above
gene | amplicon | mitotic cells, replicate 1 | Call
atl | DRSC26241 | 6 | inactive
Sbf | DRSC16852 | 3 | inactive
Sbf | DRSC27418 | 9 | inactive
Tmf | DRSC18368 | 11 | inactive
Tmf | DRSC30004 | 1 | inactive
